Laboratory results as given in patent publication US5919797A, “Halogenated naphthyl methoxy piperidines for mapping serotonin transporter sites” (Emory University, priority 1997, dated 1999).
Counter-ions that a name gives are not always drawn. At least one structure is not confirmed: it was looked up by name or label, or the drawing left a doubt.

Protein sequences, listed by entry. Tags and fused reporters are not part of them.
UniProt P31652, whole entry: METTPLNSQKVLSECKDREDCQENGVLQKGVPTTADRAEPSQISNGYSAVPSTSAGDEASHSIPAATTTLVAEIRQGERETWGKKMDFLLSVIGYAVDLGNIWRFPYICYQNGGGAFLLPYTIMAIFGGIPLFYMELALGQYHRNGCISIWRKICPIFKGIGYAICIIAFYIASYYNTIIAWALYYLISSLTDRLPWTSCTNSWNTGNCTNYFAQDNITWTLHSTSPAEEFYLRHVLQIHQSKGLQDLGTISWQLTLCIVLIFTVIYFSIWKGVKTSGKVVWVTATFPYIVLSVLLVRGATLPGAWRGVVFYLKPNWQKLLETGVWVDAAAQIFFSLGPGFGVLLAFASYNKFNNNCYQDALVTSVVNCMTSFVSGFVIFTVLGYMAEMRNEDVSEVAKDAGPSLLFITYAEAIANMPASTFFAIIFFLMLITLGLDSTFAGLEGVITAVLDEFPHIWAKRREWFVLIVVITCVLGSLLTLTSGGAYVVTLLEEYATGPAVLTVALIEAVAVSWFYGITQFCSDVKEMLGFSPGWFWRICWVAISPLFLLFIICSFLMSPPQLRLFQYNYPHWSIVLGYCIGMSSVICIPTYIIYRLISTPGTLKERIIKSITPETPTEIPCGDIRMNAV

Molecular target: T1, serotonin transporter (Rattus norvegicus, UniProt P31652)
T1 construct: from tissue; host or cells: rat cerebral cortex homogenate
Test: inhibition of [3H]-citalopram binding to rat cortical homogenates (competitive radioligand binding assay)
Details: rat cortical tissue
Text: Compounds of the invention have activity as specific ligands of the serotonin transporter. In particular, the 1-halonaphthalenyl pharmacophore has high affinity for the serotonin transporter. […] Halogen substituents can be in naturally-occurring or radioisotopic form.
Many compounds have been described in the literature as selective inhibitors of the presynaptic reuptake of serotonin (5-hydroxytryptamine,5-HT). […] A good correlation exists between the capacities of a variety of drugs to inhibit [^3 -H]-citalopram binding and [^3 -H]-5HT uptake in rat cortex, thus allowing this binding test to be used in screening for new 5-HT uptake inhibitors. […]

## Ic1c(COC2CCNCC2)ccc2ccccc12 [Compound 2, 4[(1-Iodo-2-naphthalenyl)methoxyl]piperidine hydrochloride]
  inhibition of [3H]-citalopram binding / affinity for the serotonin transporter, in words: inhibitory activity comparable to that of fluoxetine and fluvoxamine
